{
  "source": "paper doi:10.1101/2020.02.20.958942",
  "biological_target": "T1, Caspase 8 (mouse (endogenous in 3T3 fibroblasts)) (UniProt O89110)",
  "T1 sequence": "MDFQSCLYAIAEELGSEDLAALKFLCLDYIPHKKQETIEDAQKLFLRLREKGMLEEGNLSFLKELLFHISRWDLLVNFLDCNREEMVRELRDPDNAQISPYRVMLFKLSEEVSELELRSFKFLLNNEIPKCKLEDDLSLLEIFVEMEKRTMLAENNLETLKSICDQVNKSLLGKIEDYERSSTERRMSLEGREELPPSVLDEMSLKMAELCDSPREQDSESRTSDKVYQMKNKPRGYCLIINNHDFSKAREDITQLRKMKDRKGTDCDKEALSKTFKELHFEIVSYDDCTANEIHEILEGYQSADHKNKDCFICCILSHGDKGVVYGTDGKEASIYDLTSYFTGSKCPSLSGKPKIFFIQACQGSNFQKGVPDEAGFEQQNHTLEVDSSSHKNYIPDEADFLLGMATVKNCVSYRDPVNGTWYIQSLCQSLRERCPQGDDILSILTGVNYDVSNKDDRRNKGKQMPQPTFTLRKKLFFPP",
  "assay": "proximity ligation",
  "note": "Results are given in words; binding and its absence hold for the method and conditions named. In cells and extracts the contact can be indirect. Some binding calls cover weakened binding; strength is not graded here.",
  "data": [
    {"binder": "Traf2 (protein, UniProt P39429 1-501) MAAASVTSPGSLELLQPGFSKTLLGTRLEAKYLCSACKNILRRPFQAQCGHRYCSFCLTSILSSGPQNCAACVYEGLYEEGISILESSSAFPDNAARREVESLPAVCPNDGCTWKGTLKEYESCHEGLCPFLLTECPACKGLVRLSEKEHHTEQECPKRSLSCQHCRAPCSHVDLEVHYEVCPKFPLTCDGCGKKKIPRETFQDHVRACSKCRVLCRFHTVGCSEMVETENLQDHELQRLREHLALLLSSFLEAQASPGTLNQVGPELLQRCQILEQKIATFENIVCVLNREVERVAVTAEACSRQHRLDQDKIEALSNKVQQLERSIGLKDLAMADLEQKVSELEVSTYDGVFIWKISDFTRKRQEAVAGRTPAIFSPAFYTSRYGYKMCLRVYLNGDGTGRGTHLSLFFVVMKGPNDALLQWPFNQKVTLMLLDHNNREHVIDAFRPDVTSSSFQRPVSDMNIASGCPLFCPVSKMEAKNSYVRDDAIFIKAIVDLTGL", "values": [
      {"measurement": "binding", "result": "binds"}
    ]}
  ]
}
